Experimental data published in patent US20250163488A1, “CONJUGATION METHOD INVOLVING A TRANSGLUTAMINASE AT THE FC REGION COMPRISING A TRIMMED N-GLYCAN” (ADC THERAPEUTICS SA, priority 2022, published 2025).

What was measured:
[1] = tested on: azide functionalized antibody X; experiment: Conjugation of DBCO-PEG (5 kDa) and DBCO-Cy5 to azide functionalized antibody X samples; details: for degree of PEGylation: reducing SDS-PAGE, heavy chain of Antibody X
[2] = tested on: antibody X; experiment: Dual labelling of antibody X at Q295/N297 with MTGase and galactosyltransferase, MS analysis; assay type: biochemical; details: for extent of reaction / conversion: dual functionalized antibody X

For `CC1(C)C(/C=C/C=C/C=C2/N(CCCCCC(=O)NCCC(=O)N3Cc4ccccc4C#Cc4ccccc43)c3ccc(S(=O)(=O)O)cc3C2(C)C)=[N+](CCCS(=O)(=O)[O-])c2ccc(S(=O)(=O)O)cc21` [DBCO-Cy5], the DoL ([1]; EndoS process, MS) was 1.9, the “incorporation of the DBCO-Cy5” value ([1]; EndoS process, MS) was 94% and the DoL ([1]; PNGase F process, MS) was 1.5. For the same molecule, the “efficiency at the DBCO-Cy5 conjugation step” value ([1]; PNGase F process, MS) was 74%.
With DBCO-AF488 the “extent of reaction / conversion” value [2] was “complete conversion”.
In the case of DBCO-PEG (5 kDa), the “degree of PEGylation” value ([1]; EndoS process) is reported as 1.5 and the “degree of PEGylation” value ([1]; PNGase F process) is reported as 1.3.
For TCO-Cy5, the “extent of reaction / conversion” value [2] was “complete conversion”.
In the case of amine-PEG (4u)-methyltetrazine, the incorporation level ([2]; MTGase mediated conjugation to EndoS trimmed antibody X) is reported as 90%.
